These are yes or no findings as the source states them, for the method shown. In cells and extracts the contact can be indirect. Some entries that bind do so weakly or less than the wild type.
Target: potassium voltage-gated channel subfamily Q member 4 (KCNQ4), wild type (human) (UniProt P56696)
Assay: co-IP; WT or mutant Myc-KCNQ4 cotransfected with WT FLAG-KCNQ4 in HEK293T; 24 h post-transfection whole-cell lysates immunoprecipitated with anti-Myc or anti-FLAG affinity gel and immunoblotted

Amino acid sequences for entries named in this document (tags omitted). A change or cut given only in a name is not applied to a line headed by its entry. Chains listed by the source or under a name are the forms on record and can include a tag or linker.
UniProt P56696: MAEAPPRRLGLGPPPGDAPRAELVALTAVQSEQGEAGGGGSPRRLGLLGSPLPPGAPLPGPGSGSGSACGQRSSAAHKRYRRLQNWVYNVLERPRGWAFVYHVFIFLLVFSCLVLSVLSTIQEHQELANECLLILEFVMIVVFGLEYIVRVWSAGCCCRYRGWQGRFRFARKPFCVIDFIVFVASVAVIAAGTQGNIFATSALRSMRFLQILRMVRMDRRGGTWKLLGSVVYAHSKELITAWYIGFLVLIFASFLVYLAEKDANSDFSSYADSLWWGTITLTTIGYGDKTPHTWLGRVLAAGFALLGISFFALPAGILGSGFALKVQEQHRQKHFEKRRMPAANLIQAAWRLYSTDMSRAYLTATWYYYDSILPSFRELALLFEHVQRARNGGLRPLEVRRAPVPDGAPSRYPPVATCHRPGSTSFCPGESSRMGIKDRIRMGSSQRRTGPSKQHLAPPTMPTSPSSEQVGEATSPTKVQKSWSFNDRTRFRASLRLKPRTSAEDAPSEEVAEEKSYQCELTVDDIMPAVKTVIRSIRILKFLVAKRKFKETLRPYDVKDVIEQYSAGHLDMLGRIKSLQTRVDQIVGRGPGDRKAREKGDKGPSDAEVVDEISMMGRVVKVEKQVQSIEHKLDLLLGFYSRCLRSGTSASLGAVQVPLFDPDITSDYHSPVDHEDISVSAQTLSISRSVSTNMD
KCNQ4 p.Asp266Tyr (P56696-1, form named): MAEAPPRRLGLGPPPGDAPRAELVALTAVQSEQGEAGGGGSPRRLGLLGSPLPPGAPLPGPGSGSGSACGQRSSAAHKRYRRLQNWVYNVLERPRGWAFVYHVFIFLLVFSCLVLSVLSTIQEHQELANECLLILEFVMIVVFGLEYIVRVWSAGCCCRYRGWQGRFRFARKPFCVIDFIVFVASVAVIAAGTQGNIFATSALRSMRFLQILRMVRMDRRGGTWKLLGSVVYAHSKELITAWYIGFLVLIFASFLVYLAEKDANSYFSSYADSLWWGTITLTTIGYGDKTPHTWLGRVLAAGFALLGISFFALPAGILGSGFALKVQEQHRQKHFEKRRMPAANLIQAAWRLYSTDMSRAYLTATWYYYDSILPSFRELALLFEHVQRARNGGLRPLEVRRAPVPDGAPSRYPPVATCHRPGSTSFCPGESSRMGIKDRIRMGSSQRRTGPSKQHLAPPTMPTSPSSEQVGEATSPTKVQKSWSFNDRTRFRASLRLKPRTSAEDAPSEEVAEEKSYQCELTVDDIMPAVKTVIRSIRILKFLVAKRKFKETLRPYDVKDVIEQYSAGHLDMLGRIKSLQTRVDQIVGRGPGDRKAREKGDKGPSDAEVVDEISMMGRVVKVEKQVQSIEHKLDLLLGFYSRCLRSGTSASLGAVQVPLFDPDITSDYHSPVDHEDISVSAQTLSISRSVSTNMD
KCNQ4 p.Val87_Asn89del (P56696-1, form named): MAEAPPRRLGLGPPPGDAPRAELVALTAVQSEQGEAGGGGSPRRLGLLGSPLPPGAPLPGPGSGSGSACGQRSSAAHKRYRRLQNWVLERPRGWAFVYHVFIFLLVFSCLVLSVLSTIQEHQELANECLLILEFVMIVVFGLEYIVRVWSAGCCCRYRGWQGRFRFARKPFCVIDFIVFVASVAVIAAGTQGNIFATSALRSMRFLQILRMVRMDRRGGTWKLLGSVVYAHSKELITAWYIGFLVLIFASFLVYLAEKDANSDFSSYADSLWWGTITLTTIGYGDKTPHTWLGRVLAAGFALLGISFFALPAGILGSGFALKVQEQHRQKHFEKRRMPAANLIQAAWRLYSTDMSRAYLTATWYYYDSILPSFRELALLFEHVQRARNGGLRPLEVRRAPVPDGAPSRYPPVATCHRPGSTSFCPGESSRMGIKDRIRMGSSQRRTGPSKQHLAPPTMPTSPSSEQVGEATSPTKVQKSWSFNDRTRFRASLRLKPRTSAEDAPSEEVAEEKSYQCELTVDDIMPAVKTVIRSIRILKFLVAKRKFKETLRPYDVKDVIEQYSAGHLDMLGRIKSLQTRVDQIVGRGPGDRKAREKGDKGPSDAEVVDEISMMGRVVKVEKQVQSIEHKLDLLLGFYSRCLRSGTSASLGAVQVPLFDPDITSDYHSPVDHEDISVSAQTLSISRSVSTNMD

binding, binds:
KCNQ4 p.Asp266Tyr (from UniProt P56696-1 1-695)
KCNQ4 p.Val87_Asn89del (from UniProt P56696-1 1-695)
potassium voltage-gated channel subfamily Q member 4 (KCNQ4), wild type (from UniProt P56696-1 1-695)
